Data on 27 targets can be found in the supplement of paper PMC12819154, “High-throughput peptide-centric local stability assay extends protein–ligand identification to membrane proteins, tissues and bacteria” (Nature Structural & Molecular Biology, 2025).

The chains behind the UniProt entries cited, without tags or fusion partners. Where a name states a change or a piece, a line headed by the entry shows the natural chain unless it says otherwise.
UniProt Q9NZ72: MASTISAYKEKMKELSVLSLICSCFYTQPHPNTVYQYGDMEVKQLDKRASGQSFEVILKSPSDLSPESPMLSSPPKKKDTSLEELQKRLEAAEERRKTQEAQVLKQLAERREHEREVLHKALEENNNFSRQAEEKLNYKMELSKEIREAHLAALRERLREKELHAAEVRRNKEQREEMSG
UniProt Q9UBQ5, whole entry: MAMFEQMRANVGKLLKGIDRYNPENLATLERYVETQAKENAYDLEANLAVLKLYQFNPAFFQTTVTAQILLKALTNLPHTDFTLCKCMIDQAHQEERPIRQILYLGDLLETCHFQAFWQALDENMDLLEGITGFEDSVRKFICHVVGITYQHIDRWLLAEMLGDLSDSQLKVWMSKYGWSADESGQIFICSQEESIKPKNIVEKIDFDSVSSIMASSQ
UniProt Q9P2R7: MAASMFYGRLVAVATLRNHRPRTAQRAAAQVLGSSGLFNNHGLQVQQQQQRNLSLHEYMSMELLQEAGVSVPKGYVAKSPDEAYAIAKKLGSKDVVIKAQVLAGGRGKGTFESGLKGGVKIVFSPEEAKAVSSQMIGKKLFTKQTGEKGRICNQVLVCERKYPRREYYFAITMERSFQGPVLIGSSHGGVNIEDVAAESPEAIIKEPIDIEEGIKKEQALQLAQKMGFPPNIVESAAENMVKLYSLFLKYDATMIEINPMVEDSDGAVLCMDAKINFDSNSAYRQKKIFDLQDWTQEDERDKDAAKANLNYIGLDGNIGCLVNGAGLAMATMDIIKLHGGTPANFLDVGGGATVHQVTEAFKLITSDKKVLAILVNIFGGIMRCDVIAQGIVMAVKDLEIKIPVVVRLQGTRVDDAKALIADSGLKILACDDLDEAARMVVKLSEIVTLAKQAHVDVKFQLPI
UniProt Q9NYA1, whole entry: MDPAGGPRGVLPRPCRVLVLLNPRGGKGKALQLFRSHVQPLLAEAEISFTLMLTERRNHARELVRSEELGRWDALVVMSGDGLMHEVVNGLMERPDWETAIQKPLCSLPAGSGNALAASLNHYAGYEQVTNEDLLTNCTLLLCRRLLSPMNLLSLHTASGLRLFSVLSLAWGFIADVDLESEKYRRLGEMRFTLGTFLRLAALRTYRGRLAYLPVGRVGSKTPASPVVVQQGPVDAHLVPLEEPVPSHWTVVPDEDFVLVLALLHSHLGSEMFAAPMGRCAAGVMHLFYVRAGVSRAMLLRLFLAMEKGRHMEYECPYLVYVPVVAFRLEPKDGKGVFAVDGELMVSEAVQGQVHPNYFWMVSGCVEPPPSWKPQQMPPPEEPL
UniProt Q9NZ08: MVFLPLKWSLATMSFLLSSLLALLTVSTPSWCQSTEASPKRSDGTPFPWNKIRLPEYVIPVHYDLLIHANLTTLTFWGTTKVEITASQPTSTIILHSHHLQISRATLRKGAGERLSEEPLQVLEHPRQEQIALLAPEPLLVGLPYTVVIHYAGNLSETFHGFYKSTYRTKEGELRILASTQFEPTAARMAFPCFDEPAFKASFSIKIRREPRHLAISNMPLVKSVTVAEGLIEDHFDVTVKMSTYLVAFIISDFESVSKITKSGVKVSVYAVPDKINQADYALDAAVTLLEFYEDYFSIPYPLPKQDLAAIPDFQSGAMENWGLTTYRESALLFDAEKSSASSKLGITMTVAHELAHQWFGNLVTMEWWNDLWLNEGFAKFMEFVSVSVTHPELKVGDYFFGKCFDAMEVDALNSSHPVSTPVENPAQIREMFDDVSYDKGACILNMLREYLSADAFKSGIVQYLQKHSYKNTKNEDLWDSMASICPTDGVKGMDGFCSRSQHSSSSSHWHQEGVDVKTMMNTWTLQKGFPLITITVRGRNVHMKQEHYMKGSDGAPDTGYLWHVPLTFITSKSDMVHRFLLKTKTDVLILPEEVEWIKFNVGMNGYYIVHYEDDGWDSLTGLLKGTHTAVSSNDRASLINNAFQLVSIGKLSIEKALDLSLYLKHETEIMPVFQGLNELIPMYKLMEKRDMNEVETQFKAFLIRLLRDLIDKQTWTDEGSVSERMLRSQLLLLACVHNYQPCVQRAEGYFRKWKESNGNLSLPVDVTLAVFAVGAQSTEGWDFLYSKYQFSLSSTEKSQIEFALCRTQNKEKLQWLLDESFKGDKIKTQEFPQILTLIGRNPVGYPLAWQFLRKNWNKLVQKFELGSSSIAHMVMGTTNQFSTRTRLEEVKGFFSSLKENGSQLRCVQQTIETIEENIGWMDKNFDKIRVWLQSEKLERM
UniProt Q9UEU5: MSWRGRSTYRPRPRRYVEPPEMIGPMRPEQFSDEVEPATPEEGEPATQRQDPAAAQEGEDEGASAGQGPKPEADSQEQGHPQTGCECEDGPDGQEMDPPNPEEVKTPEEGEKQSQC
UniProt Q9P1Y5: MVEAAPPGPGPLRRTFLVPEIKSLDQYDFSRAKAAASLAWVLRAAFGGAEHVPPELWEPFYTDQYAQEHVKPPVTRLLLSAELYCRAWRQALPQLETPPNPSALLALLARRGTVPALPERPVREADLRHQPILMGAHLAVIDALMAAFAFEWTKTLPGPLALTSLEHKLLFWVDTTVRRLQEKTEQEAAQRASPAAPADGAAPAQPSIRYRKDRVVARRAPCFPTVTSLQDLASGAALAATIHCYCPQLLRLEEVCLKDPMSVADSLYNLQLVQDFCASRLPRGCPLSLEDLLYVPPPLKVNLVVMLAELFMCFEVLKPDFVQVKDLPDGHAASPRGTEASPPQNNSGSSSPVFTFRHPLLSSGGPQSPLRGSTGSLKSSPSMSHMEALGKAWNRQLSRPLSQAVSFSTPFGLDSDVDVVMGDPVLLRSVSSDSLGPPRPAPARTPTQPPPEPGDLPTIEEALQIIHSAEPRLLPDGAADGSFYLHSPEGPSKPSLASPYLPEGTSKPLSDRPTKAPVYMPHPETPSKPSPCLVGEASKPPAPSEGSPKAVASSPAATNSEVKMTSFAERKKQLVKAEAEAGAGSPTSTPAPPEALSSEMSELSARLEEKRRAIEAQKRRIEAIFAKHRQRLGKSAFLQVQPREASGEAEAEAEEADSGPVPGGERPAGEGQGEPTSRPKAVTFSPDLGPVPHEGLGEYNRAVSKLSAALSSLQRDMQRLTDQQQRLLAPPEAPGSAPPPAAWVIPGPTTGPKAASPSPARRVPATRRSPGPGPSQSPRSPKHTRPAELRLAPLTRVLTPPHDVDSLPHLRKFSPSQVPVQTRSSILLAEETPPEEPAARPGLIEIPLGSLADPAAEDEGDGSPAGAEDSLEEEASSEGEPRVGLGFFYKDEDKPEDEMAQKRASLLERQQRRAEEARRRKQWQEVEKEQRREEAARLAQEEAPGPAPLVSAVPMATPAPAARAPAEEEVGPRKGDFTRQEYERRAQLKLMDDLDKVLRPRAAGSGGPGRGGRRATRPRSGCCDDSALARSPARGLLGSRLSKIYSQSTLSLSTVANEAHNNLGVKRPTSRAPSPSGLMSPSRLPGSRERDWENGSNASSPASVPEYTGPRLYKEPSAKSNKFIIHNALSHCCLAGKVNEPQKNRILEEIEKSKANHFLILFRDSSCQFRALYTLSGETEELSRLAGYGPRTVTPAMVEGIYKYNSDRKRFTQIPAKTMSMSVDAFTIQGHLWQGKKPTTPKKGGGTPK
UniProt Q9NY12: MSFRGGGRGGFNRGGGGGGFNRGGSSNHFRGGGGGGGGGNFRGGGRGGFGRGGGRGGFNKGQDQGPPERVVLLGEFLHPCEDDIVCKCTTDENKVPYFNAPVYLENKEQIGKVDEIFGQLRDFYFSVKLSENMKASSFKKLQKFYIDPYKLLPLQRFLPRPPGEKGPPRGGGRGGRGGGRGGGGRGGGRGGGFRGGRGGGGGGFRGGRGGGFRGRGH
UniProt Q9P2D3: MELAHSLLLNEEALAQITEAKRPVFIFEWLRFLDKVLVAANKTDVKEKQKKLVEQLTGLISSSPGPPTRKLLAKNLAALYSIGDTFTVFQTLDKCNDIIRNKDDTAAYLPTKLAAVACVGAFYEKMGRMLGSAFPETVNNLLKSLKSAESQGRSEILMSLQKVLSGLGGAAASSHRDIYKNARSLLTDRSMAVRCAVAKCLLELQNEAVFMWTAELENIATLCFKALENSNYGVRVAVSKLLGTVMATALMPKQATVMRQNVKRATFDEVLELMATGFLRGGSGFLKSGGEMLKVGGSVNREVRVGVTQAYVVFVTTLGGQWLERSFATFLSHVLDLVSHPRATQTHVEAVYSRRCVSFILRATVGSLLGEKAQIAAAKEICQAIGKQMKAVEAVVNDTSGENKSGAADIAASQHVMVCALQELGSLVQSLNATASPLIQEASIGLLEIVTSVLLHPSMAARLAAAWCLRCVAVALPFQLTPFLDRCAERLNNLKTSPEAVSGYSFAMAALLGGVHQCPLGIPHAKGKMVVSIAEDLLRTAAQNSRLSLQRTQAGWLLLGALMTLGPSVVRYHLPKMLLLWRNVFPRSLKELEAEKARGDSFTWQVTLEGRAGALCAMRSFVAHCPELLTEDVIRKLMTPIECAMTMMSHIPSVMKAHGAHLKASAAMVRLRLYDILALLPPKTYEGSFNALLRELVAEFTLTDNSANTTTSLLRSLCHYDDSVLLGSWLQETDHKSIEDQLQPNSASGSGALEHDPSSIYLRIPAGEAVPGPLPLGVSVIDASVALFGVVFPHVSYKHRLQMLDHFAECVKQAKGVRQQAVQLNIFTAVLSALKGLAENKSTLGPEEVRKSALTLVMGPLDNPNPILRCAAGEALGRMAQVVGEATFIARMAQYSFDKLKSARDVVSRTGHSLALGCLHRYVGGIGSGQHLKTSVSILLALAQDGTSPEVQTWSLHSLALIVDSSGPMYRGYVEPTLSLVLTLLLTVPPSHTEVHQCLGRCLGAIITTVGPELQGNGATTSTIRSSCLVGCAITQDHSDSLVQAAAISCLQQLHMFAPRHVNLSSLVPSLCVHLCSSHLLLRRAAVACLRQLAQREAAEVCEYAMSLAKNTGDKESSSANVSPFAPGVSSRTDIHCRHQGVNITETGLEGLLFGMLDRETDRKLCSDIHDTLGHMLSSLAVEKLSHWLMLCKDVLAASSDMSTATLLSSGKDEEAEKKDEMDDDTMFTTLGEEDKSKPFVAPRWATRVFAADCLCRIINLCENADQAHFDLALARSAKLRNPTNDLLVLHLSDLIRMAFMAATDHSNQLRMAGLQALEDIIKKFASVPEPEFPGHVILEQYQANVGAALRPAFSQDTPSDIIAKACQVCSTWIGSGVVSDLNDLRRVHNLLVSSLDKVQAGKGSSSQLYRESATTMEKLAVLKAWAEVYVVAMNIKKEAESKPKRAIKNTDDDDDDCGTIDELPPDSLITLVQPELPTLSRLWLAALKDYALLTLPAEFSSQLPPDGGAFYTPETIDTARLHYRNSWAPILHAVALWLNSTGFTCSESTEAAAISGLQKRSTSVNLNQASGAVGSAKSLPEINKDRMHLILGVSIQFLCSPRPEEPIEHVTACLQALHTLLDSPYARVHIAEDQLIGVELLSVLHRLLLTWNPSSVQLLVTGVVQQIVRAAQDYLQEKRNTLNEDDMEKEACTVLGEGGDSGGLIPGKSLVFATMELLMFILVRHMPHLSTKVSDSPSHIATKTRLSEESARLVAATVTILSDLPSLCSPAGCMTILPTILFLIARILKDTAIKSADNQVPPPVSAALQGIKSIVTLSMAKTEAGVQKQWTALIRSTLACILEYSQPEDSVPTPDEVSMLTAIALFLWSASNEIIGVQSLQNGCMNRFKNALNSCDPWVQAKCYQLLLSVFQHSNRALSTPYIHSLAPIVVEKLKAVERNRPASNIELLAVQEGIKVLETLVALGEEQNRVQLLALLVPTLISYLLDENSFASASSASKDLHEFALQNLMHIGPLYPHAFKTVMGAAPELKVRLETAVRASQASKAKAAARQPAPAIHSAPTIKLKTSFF
UniProt Q9NXH9: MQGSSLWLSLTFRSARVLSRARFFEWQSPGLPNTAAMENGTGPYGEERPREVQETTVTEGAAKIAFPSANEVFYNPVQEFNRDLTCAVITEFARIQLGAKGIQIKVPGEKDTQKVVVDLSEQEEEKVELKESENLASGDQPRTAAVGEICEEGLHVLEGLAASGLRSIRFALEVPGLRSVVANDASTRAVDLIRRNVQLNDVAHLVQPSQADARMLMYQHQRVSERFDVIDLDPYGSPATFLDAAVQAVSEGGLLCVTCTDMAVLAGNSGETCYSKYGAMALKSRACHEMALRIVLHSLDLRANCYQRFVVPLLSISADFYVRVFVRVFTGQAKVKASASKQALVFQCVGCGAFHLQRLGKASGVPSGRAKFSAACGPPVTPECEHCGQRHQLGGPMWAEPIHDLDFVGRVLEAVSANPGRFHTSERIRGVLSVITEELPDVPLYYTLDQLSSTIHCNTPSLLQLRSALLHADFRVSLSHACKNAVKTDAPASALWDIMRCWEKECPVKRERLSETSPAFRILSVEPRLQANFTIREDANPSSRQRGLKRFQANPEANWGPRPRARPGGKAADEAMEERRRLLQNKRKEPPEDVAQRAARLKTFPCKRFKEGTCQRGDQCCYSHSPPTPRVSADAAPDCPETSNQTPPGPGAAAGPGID

Compound in the assay: Cc1nc(Nc2ncc(C(=O)Nc3c(C)cccc3Cl)s2)cc(N2CCN(CCO)CC2)n1 [dasatinib]
Kind of assay: log2 fold change of tryptic peptide abundance, ligand vs vehicle (limited proteolysis) (log2 ratio); higher = more trypsin-susceptible (destabilized). The settings on record: ligand concentration: 5 uM; sample: K562 cleared lysate.

This is one part of the list. Most entries show no effect beyond the scatter of the controls.

Regarding “PHRF1 (peptide sequence: RPVHSSCIPSVLKPVEPSLGLLR, peptide start residue: 401) (UniProt Q9P1Y6)”, the log2 fold change is 0.622. The result for “STMN3 (peptide sequence: RLEAAEER, peptide start residue: 88) (UniProt Q9NZ72)” reads 0.286; that for “DBF4 (peptide sequence: MSNKCSMLSTAEDDIR, peptide start residue: 430) (UniProt Q9UBU7)”, -0.387; that for “ABI2 (peptide sequence: REIGILTTNKNTSR, peptide start residue: 107) (UniProt Q9NYB9)”, 0.329. Regarding “EIF3K (peptide sequence: ALTNLPHTDFTLCK, peptide start residue: 73) (UniProt Q9UBQ5)”, the log2 fold change is -0.192. “SUCLA2 (peptide sequence: GKGTFESGLKGGVK, peptide start residue: 107) (UniProt Q9P2R7)”: the log2 fold change was 0.402.

With “SPHK1 (peptide sequence: VLVLLNPR, peptide start residue: 17) (UniProt Q9NYA1)”, the log2 fold change was -0.0891. As to “UniProt Q9NXE8 (peptide sequence: NSDRNQGLQGPLTAEQK, peptide start residue: 233)”, the log2 fold change is -0.34. Take “UniProt Q9P0J6 (peptide sequence: CKDCYLVK, peptide start residue: 76)”: the log2 fold change is -0.0537. As to “MRPL15 (peptide sequence: VSLANLKPNPGSK, peptide start residue: 22) (UniProt Q9P015)”, the log2 fold change is 0.0866. For “RERE (peptide sequence: MASLTSDPLAR, peptide start residue: 1406) (UniProt Q9P2R6)”, the log2 fold change is -0.116. Consider “ERAP1 (peptide sequence: GMDGFCSR, peptide start residue: 493) (UniProt Q9NZ08)”, for which the log2 fold change was 0.0165. Regarding “NCDN (peptide sequence: RIFDAVGFTFPNR, peptide start residue: 75) (UniProt Q9UBB6)”, the log2 fold change stood at 0.179. Take “MTMR10 (peptide sequence: TLFHNPFYIGK, peptide start residue: 550) (UniProt Q9NXD2)”: the log2 fold change was determined as 0.241.

Turning to “UniProt Q9UGL1 (peptide sequence: DYIVENEKEKPK, peptide start residue: 286)”, the log2 fold change came out at 0.777. As to “UniProt Q9NXR5 (peptide sequence: KRCLEDSEDFGVK, peptide start residue: 213)”, the log2 fold change was -0.624.

As to “UniProt Q9UEU5 (peptide sequence: TPEEGEKQSQC, peptide start residue: 106)”, the log2 fold change is 0.0881. As to “UniProt Q9UEE5 (peptide sequence: GLSGPCRPPPPPQAR, peptide start residue: 26)”, the log2 fold change was -0.071. As for “CTNNAL1 (peptide sequence: LLLSSVTK, peptide start residue: 147) (UniProt Q9UBT7)”, the log2 fold change is -0.128. In the case of “CAMSAP3 (peptide sequence: GSTGSLK, peptide start residue: 372) (UniProt Q9P1Y5)”, the log2 fold change was -0.105.

Take “ZC3H7B (peptide sequence: FVCGQCWR, peptide start residue: 695) (UniProt Q9UGR2)”: the log2 fold change is -0.123. Consider “GAR1 (peptide sequence: FYIDPYK, peptide start residue: 144) (UniProt Q9NY12)”, for which the log2 fold change was -0.0635. With “VPS54 (peptide sequence: LSHYLDIVEVNIAHQISLR, peptide start residue: 209) (UniProt Q9P1Q0)”, the log2 fold change is 0.257. For “HEATR5B (peptide sequence: ESATTMEK, peptide start residue: 1412) (UniProt Q9P2D3)”, the log2 fold change amounted to 0.298. In the case of “UniProt Q9P0U3 (peptide sequence: EHSVHDSVELHLR, peptide start residue: 379)”, the log2 fold change was -0.363. Consider “NIPSNAP3A (peptide sequence: SYYLKPSK, peptide start residue: 41) (UniProt Q9UFN0)”, for which the log2 fold change worked out at 0.13. Turning to “TRMT1 (peptide sequence: ESENLASGDQPR, peptide start residue: 131) (UniProt Q9NXH9)”, the log2 fold change was found to be 0.173.
